Results taken from patent publication US20210188940A1 (BIOAGE LABS, published 2021).
Where a chain is given by its changes, count along the chain named. No constants are given. Whether binding was seen depends on the method and setting. Some results given as binding are weak or reduced against the parent protein; the word gives no strength.

Chains of the proteins cited; added tags and fusions are not shown. Residues count along the entry.
UniProt P09429: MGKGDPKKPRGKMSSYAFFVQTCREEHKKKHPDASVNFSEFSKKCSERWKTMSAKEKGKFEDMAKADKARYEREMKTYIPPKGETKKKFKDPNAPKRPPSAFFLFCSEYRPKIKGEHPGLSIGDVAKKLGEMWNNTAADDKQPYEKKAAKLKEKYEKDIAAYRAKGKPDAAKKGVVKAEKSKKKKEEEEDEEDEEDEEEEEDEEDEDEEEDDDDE
UniProt P02768, residues 25-609: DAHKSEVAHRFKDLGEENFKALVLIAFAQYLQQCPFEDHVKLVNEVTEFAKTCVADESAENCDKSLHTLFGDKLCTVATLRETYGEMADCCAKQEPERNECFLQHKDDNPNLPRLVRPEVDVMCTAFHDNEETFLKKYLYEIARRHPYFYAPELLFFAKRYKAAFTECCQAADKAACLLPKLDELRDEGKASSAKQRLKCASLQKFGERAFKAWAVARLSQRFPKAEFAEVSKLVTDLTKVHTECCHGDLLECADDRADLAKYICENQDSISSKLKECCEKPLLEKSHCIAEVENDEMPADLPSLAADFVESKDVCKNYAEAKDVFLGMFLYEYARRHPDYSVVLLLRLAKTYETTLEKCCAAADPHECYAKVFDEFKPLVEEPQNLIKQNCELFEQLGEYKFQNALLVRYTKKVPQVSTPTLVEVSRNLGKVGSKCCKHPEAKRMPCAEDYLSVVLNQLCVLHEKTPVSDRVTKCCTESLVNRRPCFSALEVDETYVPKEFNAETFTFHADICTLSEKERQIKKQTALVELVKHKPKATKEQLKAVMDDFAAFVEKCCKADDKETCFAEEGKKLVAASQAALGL

How the values were obtained:
Test in all cases: ELISA, ligand coated on plate
[1] = biological target: T1, S100A9 (UniProt P06702 1-114, limits assumed)
T1 sequence (looked up): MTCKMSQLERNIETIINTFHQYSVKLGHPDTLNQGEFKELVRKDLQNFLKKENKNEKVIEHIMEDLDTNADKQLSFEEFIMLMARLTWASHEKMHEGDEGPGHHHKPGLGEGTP

[2] = biological target: HMGB1 (amphoterin) (UniProt P09429)
[3] = biological target: T2, S100A12 (UniProt P80511 1-92, limits assumed)
T2 sequence (looked up): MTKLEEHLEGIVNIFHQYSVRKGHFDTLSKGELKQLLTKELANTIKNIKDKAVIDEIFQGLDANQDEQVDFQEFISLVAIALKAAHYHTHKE

[4] = biological target: CML-HSA (carboxymethylated human serum albumin) (human) (UniProt P02768)
[5] = biological target: T3, S100A9 (UniProt P06702)
T3 sequence (looked up): T1 sequence (looked up)

Measured: binding

B1: Construct #12: RAGE V-C1-C2-V1stem(M/A)-IgG2 lower hinge-(IgG4CH2-CH3) (Fc fusion)
chain: AQNITARIGEPLVLKCKGAPKKPPQRLEWKLNTGRTEAWKVLSPQGGGPWDSVARVLPNGSLFLPAVGIQDEGIFRCQAMNRNGKETKSNYRVRVYQIPGKPEIVDSASELTAGVPNKVGTCVSEGSYPAGTLSWHLDGKPLVPNEKGVSVKEQTRRHPETGLFTLQSELMVTPARGGDPRPTFSCSFSPGLPRHRALRTAPIQPRVWEPVPLEEVQLVVEPEGGAVAPGGTVTLTCEVPAQPSPQIHWMKDGVPLPLPPSPVLILPEIGPQDQGTYSCVATHSSHGPQESRAVSISIIEPGEEGPTAGEGFDKVREAEDSPQHAVECPPCAPPVAGGPSVFLFPPKPKDTLMISRTPEVTCVVVDVSQEDPEVQFNWYVDGVEVHNAKTKPREEQFNSTYRVVSVLTVLHQDWLNGKEYKCKVSNKGLPSSIEKTISKAKGQPREPQVYTLPPSQEEMTKNQVSLTCLVKGFYPSDIAVEWESNGQPENNYKTTPPVLDSDGSFFLYSRLTVDKSRWQEGNVFSCSVMHEALHNHYTQKSLSLSLGK
notes: also called esRAGE-Fc fusion
not listed: [5]
binds: all other assays above

B2: Construct #16: RAGE V-C1-C2-V1stem(M/A)-IgG2 lower hinge-(IgG4CH2-CH3)-YTE (Fc fusion)
chain: B1 chain with M353Y, S355T, T357E
notes: also called #12 + YTE; esRAGE-Fc fusion
not listed: [1]
binds: all other assays above
